Results published in patent US20040146554A1, “Method for the administration of acid-labile drugs” (priority 2000, published 2004).
At least one structure is not confirmed: it was looked up by name or label, or the drawing left a doubt.

Experiments:
[1] = Suspending PPI capsule granules or tablets in calcium carbonate suspension; format: physicochemical; details: for time until tablet contents had completely suspended: tablet (20 mg rabeprazole, 40 mg pantoprazole) in 10 cc of 4 gm % or 8 gm % calcium carbonate suspension
Method: More specifically, suspensions of calcium carbonate were produced by dissolving either 400 mg or 800 mg of calcium carbonate in 10 cc of water, resulting in suspensions of 4 gm % and 8 gm %, respectively. In separate 10 cc preparations of either strength of the calcium carbonate suspension, the granular contents of a 20 mg omeprazole capsule, a 30 mg lansoprazole capsule, a 20 mg rabeprazole tablet, and a 40 mg pantoprazole tablet were suspended. In approximately 30 minutes, the granules of the omeprazole and lansoprazole capsules were in complete suspension. In approximately two hours, the contents of the tablets of rabeprazole and pantoprazole had completely suspended.

gastric acid secretion = details: intact granules suspended in orange juice, via gastrostomy tube; cited from earlier work

## COCCCOc1ccnc(C[S+]([O-])c2nc3ccccc3[nH]2)c1C (stereo not shown) [rabeprazole]
[1]
  time until tablet contents had completely suspended: approximately two

## COc1ccnc(C[S+]([O-])c2nc3ccc(OC(F)F)cc3[nH]2)c1OC (stereo not shown) [pantoprazole]
[1]
  time until tablet contents had completely suspended: approximately two

## COc1ccc2[nH]c([S+]([O-])Cc3ncc(C)c(OC)c3C)nc2c1 (stereo not shown) [omeprazole]
[1]; granular contents of capsule (20 mg omeprazole, 30 mg lansoprazole) in 10 cc of 4 gm % or 8 gm % calcium carbonate suspension
  time until granules were in complete suspension: approximately 30 minutes
Gastric acid secretion
  suppression of gastric acid secretion: produced the desired effect of suppressing gastric acid secretion
